These are yes or no findings as the source states them, for the method shown. Binding seen in cells or lysates may run through a third protein. Where a sequence is shown, tags or fusion partners need not be part of it.
B1: untagged GRAF2 (protein, UniProt A1A4S6 1-786)
chain: MGLQPLEFSDCYLDSPWFRERIRAHEAELERTNKFIKELIKDGKNLIAATKSLSVAQRKFAHSLRDFKFEFIGDAVTDDERCIDASLREFSNFLKNLEEQREIMALSVTETLIKPLEKFRKEQLGAVKEEKKKFDKETEKNYSLIDKHLNLSAKKKDSHLQEADIQVEQNRQHFYELSLEYVCKLQEIQERKKFEFVEPMLSFFQGMFTFYHQGHELAKDFNHYKMELQINIQNTRNRFEGTRSEVEELMNKIRQNPKDHKRASQFTAEGYLYVQEKRPAPFGSSWVKHYCMYRKAAKKFNMIPFEHRSGGKLGDGEVFFLKECTKRHTDSIDRRFCFDIEAADRPGVSLTMQAFSEEERKQWLEALGGKEALSHSFNTAIIPRPEGNAQLDKMGFTIIRKCISAVETRGINDQGLYRVVGVSSKVQRLLSMLMDVKTCNEVDLENSADWEVKTITSALKQYLRSLPEPLMTYELHGDFIVPAKSGSPESRVNAIHFLVHKLPEKNKEMLDILVKHLTNVSNHSKQNLMTVANLGVVFGPTLMRPQEETVAALMDLKFQNIVVEILIENHEKIFRTPPDTTFPEPTCLSASPPNAPPRQSKRQGQRTKRPVAVYNLCLELEDGDNPYPSKEDTPTSSLDSLSSPSPVTTAVPGPPGPDKNHLLADGGSFGDWASTIPGQTRSSMVQWLNPQSPTTTSSNSAVTPLSPGSSPFPFSPPATVADKPPESIRSRKARAVYPCEAEHSSELSFEIGAIFEDVQTSREPGWLEGTLNGKRGLIPQNYVKLL
B2: GRAF1b-myc (protein, UniProt Q9UNA1-2 1-759)
chain: MGLPALEFSDCCLDSPHFRETLKSHEAELDKTNKFIKELIKDGKSLISALKNLSSAKRKFADSLNEFKFQCIGDAETDDEMCIARSLQEFATVLRNLEDERIRMIENASEVLITPLEKFRKEQIGAAKEAKKKYDKETEKYCGILEKHLNLSSKKKESQLQEADSQVDLVRQHFYEVSLEYVFKVQEVQERKMFEFVEPLLAFLQGLFTFYHHGYELAKDFGDFKTQLTISIQNTRNRFEGTRSEVESLMKKMKENPLEHKTISPYTMEGYLYVQEKRHFGTSWVKHYCTYQRDSKQITMVPFDQKSGGKGGEDESVILKSCTRRKTDSIEKRFCFDVEAVDRPGVITMQALSEEDRRLWMEAMDGREPVYNSNKDSQSEGTAQLDSIGFSIIRKCIHAVETRGINEQGLYRIVGVNSRVQKLLSVLMDPKTASETETDICAEWEIKTITSALKTYLRMLPGPLMMYQFQRSFIKAAKLENQESRVSEIHSLVHRLPEKNRQMLQLLMNHLANVANNHKQNLMTVANLGVVFGPTLLRPQEETVAAIMDIKFQNIVIEILIENHEKIFNTVPDMPLTNAQLHLSRKKSSDSKPPSCSERPLTLFHTVQSTEKQEQRNSIINSSLESVSSNPNSILNSSSSLQPNMNSSDPDLAVVKPTRPNSLPPNPSPTSPLSPSWPMFSAPSSPMPTSSTSSDSSPVSTPFRKAKALYACKAEHDSELSFTAGTVFDNVHPSQEPGWLEGTLNGKTGLIPENYVEFL
B3: untagged MICAL1 (protein, UniProt Q8TDZ2 1-1067)
chain: MASPTSTNPAHAHFESFLQAQLCQDVLSSFQELCGALGLEPGGGLPQYHKIKDQLNYWSAKSLWTKLDKRAGQPVYQQGRACTSTKCLVVGAGPCGLRVAVELALLGARVVLVEKRTKFSRHNVLHLWPFTIHDLRALGAKKFYGRFCTGTLDHISIRQLQLLLLKVALLLGVEIHWGVTFTGLQPPPRKGSGWRAQLQPNPPAQLANYEFDVLISAAGGKFVPEGFKVREMRGKLAIGITANFVNGRTVEETQVPEISGVARIYNQSFFQSLLKATGIDLENIVYYKDDTHYFVMTAKKQCLLRLGVLRQDWPDTNRLLGSANVVPEALQRFTRAAADFATHGKLGKLEFAQDAHGQPDVSAFDFTSMMRAESSARVQEKHGARLLLGLVGDCLVEPFWPLGTGVARGFLAAFDAAWMVKRWAEGAESLEVLAERESLYQLLSQTSPENMHRNVAQYGLDPATRYPNLNLRAVTPNQVRDLYDVLAKEPVQRNNDKTDTGMPATGSAGTQEELLRWCQEQTAGYPGVHVSDLSSSWADGLALCALVYRLQPGLLEPSELQGLGALEATAWALKVAENELGITPVVSAQAVVAGSDPLGLIAYLSHFHSAFKSMAHSPGPVSQASPGTSSAVLFLSKLQRTLQRSRAKENAEDAGGKKLRLEMEAETPSTEVPPDPEPGVPLTPPSQHQEAGAGDLCALCGEHLYVLERLCVNGHFFHRSCFRCHTCEATLWPGGYEQHPGDGHFYCLQHLPQTDHKAEGSDRGPESPELPTPSENSMPPGLSTPTASQEGAGPVPDPSQPTRRQIRLSSPERQRLSSLNLTPDPEMEPPPKPPRSCSALARHALESSFVGWGLPVQSPQALVAMEKEEKESPFSSEEEEEDVPLDSDVEQALQTFAKTSGTMNNYPTWRRTLLRRAKEEEMKRFCKAQTIQRRLNEIEAALRELEAEGVKLELALRRQSSSPEQQKKLWVGQLLQLVDKKNSLVAEEAELMITVQELNLEEKQWQLDQELRGYMNREENLKTAADRQAEDQVLRKLVDLVNQRDALIRFQEERRLSELALGTGAQG

Experiments:
GFP-MICAL3 (human) = test: co-IP; transfected 293T, IP with α-GFP and Protein G Sepharose; 20 mM Hepes pH 7.4, 150 mM NaCl, 2 mM EDTA, 1% IGEPAL CA-630; Western blot
GFP-Rab1 (canine) = test: as above

| Binder | binding (GFP-MICAL3 (human)) | binding (GFP-Rab1 (canine)) |
| --- | --- | --- |
| B1 | no binding |  |
| B2 | no binding |  |
| B3 |  | no binding |

Source: publication PMC7199855, “GRAF2, WDR44, and MICAL1 mediate Rab8/10/11–dependent export of E-cadherin, MMP14, and CFTR ΔF508” (The Journal of Cell Biology, 2020)
